# The supplement of paper PMC6289059
# This is one part of the list. Repeats are few or missing, and single values can be far off.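 The cells are hepatocyte-like cells grown from human stem cells in which the DGUOK gene was disrupted by CRISPR, a model of liver mtDNA depletion syndrome. Each well's ATP signal was scored against the other wells on its plate, and a drug counted as a primary hit when its score was 3 or higher.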
# System: DGUOK Δ14/Δ5 iPSC-derived hepatocyte-like cells (SV20)
# Test: ATP level (CellTiter-Glo luminescence) Z score relative to plate distribution, under 2-DG glycolysis block; higher = more cellular ATP (rescue of mitochondrial ATP production)
# Conditions: 5 µM; treatment time: day 15 to day 20 of differentiation (5 days); 2-deoxy-D-glucose: 20 mM for 24 h before assay
row,Structure (SMILES),ATP level
1,CC1(C)CC23C(=O)CCC(O)C2(C)CCC13 (stereo not given),inactive: 0.164
2,CCC(C(N)=O)c1ccccc1 (stereo not given),inactive: -8.1
3,COc1cc2c(cc1OC)C1(O)C(=O)c3ccc(O)c(C(=O)O)c3OC1CO2 (stereo not given),inactive: -0.287
4,CCOc1cc(CC(=O)N[C@@H](CC(C)C)c2ccccc2N2CCCCC2)ccc1C(=O)O,active: 6.88
5,C#CCCCCCCCCCCCC(O)CC(O)COC(C)=O (stereo not given),inactive: -1.26
6,COc1ncnc(NS(=O)(=O)c2ccc(N)cc2)c1OC,inactive: 2.63
7,CC1(C)C(=O)C=CC2(C)C1C=CC1(C)C2CCC2(C)C(c3ccoc3)OC(=O)C3OC312 (stereo not given),inactive: -2.14
8,CC(=O)OCC(=O)[C@@]1(O)[C@H](C)C[C@H]2[C@@H]3CCC4=CC(=O)C=C[C@]4(C)[C@@]3(F)[C@@H](O)C[C@@]21C,inactive: 2.31
9,CC1(C)CCC[C@]2(C)[C@H]3CC(=O)O[C@]3(C)CC[C@@H]12,inactive: 1.28
10,COc1ccc(C(=O)c2ccccc2)c(O)c1,inactive: -0.447
11,COc1c(N2C[C@@H]3CCCN[C@@H]3C2)c(F)cc2c(=O)c(C(=O)O)cn(C3CC3)c12,inactive: -3.21
12,COc1ccc(C(=O)CC(=O)c2ccc(C(C)(C)C)cc2)cc1,inactive: 1.51
13,NCCSSCCN,inactive: 0.423
14,CC1(C)C(=O)[C@H]2C[C@]3(O)C4=CC(=O)O[C@@H](c5ccoc5)[C@@]4(C)CCC3[C@](C)(C2=O)[C@H]1CC(=O)O (stereo not given in full),inactive: 1.59
15,Nc1nc2c(ncn2COCCO)c(=O)[nH]1,inactive: 1.84
16,O=c1cc(-c2ccccc2O)oc2cc(O)ccc12,inactive: -0.256
17,CC(C)NCC(O)c1ccc(O)c(O)c1 (stereo not given),inactive: -0.458
18,COc1ccc2[nH]c([S@@+]([O-])Cc3ncc(C)c(OC)c3C)nc2c1,inactive: 1.85
19,CCCCCC(=O)O[C@]1(C(C)=O)CC[C@H]2[C@@H]3CCC4=CC(=O)CC[C@]4(C)[C@H]3CC[C@@]21C,inactive: 0.283
20,O=C(O[C@@H]1Cc2c(O)cc(O)cc2O[C@@H]1c1ccc(O)c(O)c1)c1cc(O)c(O)c(O)c1,inactive: 1.89
21,OC(c1cc(C(F)(F)F)nc2c(C(F)(F)F)cccc12)C1CCCCN1 (stereo not given),inactive: -18.5
22,CNCCCC12CCC(c3ccccc31)c1ccccc12,inactive: -1.33
23,CC[C@H]1OC(=O)C[C@@H](O)[C@H](C)[C@@H](O[C@@H]2O[C@H](C)[C@@H](O)[C@H](N(C)C)[C@H]2O)[C@@H](CCN2C[C@H](C)C[C@H](C)C2)C[C@@H](C)C(=O)/C=C/C(C)=C/[C@@H]1CO[C@@H]1O[C@H](C)[C@@H](O)[C@@H](OC)[C@H]1OC,inactive: -1.03
24,C=CC1(C)CC(=O)C2(O)C(C)(O1)C(O)C(O)C1C(C)(C)CCC(O)C12C (stereo not given),inactive: 2.4
25,Cc1coc2c1C(=O)C(=O)c1c-2ccc2c1CCCC2(C)C,inactive: -4.63

row,Structure (SMILES),ATP level
1,C[C@]12C=CC(=O)C=C1CC[C@H]1[C@@H]3C[C@@H](O)[C@](O)(C(=O)CO)[C@@]3(C)C[C@H](O)[C@@]12F,inactive: 1.51
2,CC1(C)O[C@@H]2C[C@H]3[C@@H]4CCC5=CC(=O)CC[C@]5(C)[C@@]4(F)[C@@H](O)C[C@]3(C)[C@]2(C(=O)CCl)O1,active: 3.31
3,CCN(CC)C(=O)/C(C#N)=C/c1cc(O)c(O)c([N+](=O)[O-])c1,inactive: 0.445
4,C[C@@H]1O[C@@H](OC[C@H]2O[C@@H](Oc3c(-c4ccc(OCCO)c(OCCO)c4)oc4cc(OCCO)cc(O)c4c3=O)[C@H](O)[C@@H](O)[C@@H]2O)[C@H](O)[C@H](O)[C@H]1O,inactive: -8.17
5,C[C@@H](O)[C@H]1C(=O)N2C(C(=O)O)=C(S[C@@H]3CN[C@H](C(=O)N(C)C)C3)[C@H](C)[C@H]12,inactive: 2.07
6,O=C(O)[C@H](O)[C@@H](O)[C@H](O[C@@H]1O[C@H](CO)[C@H](O)[C@H](O)[C@H]1O)[C@H](O)CO,inactive: 1.7
7,COc1ccc(C(=O)O)c(O)c1OC,inactive: 1.6
8,Cc1cc(C)cc(OCC2CNC(=O)O2)c1 (stereo not given),inactive: -1.47
9,CC(=O)O[C@H]1C[C@@H]2CC[C@@H]3[C@H](CC[C@@]4(C)[C@H]3C[C@H]([N+]3(C)CCCCC3)[C@@H]4OC(C)=O)[C@@]2(C)C[C@@H]1N1CCCCC1,inactive: 0.952
10,C=Cc1c(C)c2[n-]c1=CC1=NC(=CC3=C(C)C(=C([O-])[O-])C(=N3)C(CC(=O)[O-])=C3N=C(C=2)C(C)C3CCC(=O)[O-])C(CC)=C1C.[Cu+2].[Na+].[Na+].[Na+] (stereo not given),active: 3.2
11,C[C@H]1O[C@@H](n2cc(F)c(=O)[nH]c2=O)[C@H](O)[C@@H]1O,inactive: 1.6
12,O=c1c(-c2ccc(O)cc2)coc2cc(O)ccc12,inactive: -0.777
13,CC1(C)CC[C@]2(C(=O)O)CC[C@]3(C)C(=CC[C@@H]4[C@@]5(C)CC[C@H](O)C(C)(C)[C@@H]5CC[C@]43C)[C@@H]2C1,inactive: -2.75
14,CN1C(=O)OC(C)(C)C1=O,inactive: 0.885
15,CC(=O)CCCCn1c(=O)c2c(ncn2C)n(C)c1=O,inactive: 2.79
16,CN(C/C=C/c1ccccc1)Cc1cccc2ccccc12,inactive: 0.332
17,O=C(CO)C(O)C(O)C(O)CO (stereo not given),inactive: -1.67
18,C[C@@H]1CC[C@@]2(OC1)O[C@H]1C[C@H]3[C@@H]4CC[C@H]5C[C@@H](O)CC[C@]5(C)[C@H]4CC(=O)[C@]3(C)[C@H]1[C@@H]2C,inactive: -0.3
19,NCCNCCNCCN,inactive: 1.43
20,O=C(CCc1ccc(O)cc1)c1c(O)cc(O)cc1O[C@@H]1OC(CO)[C@@H](O)[C@@H](O)C1O (stereo not given in full),inactive: 1.96
21,COc1c(C)c2c(c(O)c1C/C=C(\C)CCC(=O)O)C(=O)OC2,inactive: -0.917
22,O=C(Oc1ccccc1C(=O)O)c1ccccc1O,inactive: -0.736
23,O=C(O)c1ccc(S(=O)(=O)N(Cl)Cl)cc1,inactive: 1.31
24,CCCCCNC(=N)N/N=C/c1c[nH]c2ccc(OC)cc12,inactive: -2.2
25,CCN1CCCC(OC(=O)C(c2ccccc2)c2ccccc2)C1 (stereo not given),inactive: 0.523

# Given tab-delimited: entries from further up
row	Structure (SMILES)	ATP level
20	O=C(CCc1ccc(O)cc1)c1c(O)cc(O)cc1O[C@@H]1OC(CO)[C@@H](O)[C@@H](O)C1O (stereo not given in full)	inactive: 1.96
21	COc1c(C)c2c(c(O)c1C/C=C(\C)CCC(=O)O)C(=O)OC2	inactive: -0.917
